Numbering of substitutions follows the chain as printed. Results are given in words; binding and its absence hold for the method and conditions named. Some binding calls cover weakened binding; strength is not graded here.

Amino acid sequences for entries named in this document (tags omitted). Residues count along the entry.
UniProt P01732, residues 22-182: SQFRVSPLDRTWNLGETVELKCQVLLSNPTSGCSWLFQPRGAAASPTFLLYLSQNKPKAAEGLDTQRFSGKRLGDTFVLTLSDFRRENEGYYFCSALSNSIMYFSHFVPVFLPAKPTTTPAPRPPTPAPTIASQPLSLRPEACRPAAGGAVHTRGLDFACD

We go through 32 molecules from patent publication US20210032312A1.

First the molecules themselves.
B1: P282AR9P1356_A10 (designed binder)
chain: LPAPKNLVVSRVTEDSARLSWHTATNSFDSFLIQYQESEKVGEAIVLTVPGSERSYDLTGLKPGTEYTVSIYGVDVDYNPTGRPVSSNPLSAIFTT
B2: P282BR9P1357_C10 (designed binder)
chain: LPAPKNLVVSRVTEDSARLSWWSNDNRPIFDSFLIQYQESEKVGEAIVLTVPGSERSYDLTGLKPGTEYTVSIYGVDVKWEGNRPVASNPLSAIFTT
B3: P283BR9P1363_G2 (designed binder)
chain: B2 chain with W22P, S23K, D25Q, N26T, R27N, P28R, I29H
B4: P283BR9P1363_F4 (designed binder)
chain: B2 chain with W22E, S23R, N24I, D25V, N26Q, R27T, I29H
B5: P283BR9P1363_G7 (designed binder)
chain: B2 chain with W22S, S23A, N24K, D25K, N26F, R27P, P28R, I29H
B6: P283BR9P1363_E6 (designed binder)
chain: B2 chain with W22Y, S23A, N24R, D25K, N26F, R27I, P28S, I29P
B7: P283DR9P1364_F8 (designed binder)
chain: LPAPKNLVVSRVTEDSARLSWTAPDAAFDSFAIAYPEWPPGEAIVLTVPGSERSYDLTGLKPGTEYFVIIYGVKGGWTSPPLSAIFTT
B8: P283DR9P1364_A4 (designed binder)
chain: LPAPKNLVVSRVTEDSARLSWTAPDAAFDSFYIAYPEWPVQGEAIVLTVPGSERSYDLTGLKPGTEYFVIIYGVKGGDWSEPLSAIFTT
B9: P283DR9P1364_E3 (designed binder)
chain: B8 chain with Y32G, W38L, V40I, Q41G, Y72R, D78T, W79L, E81P
B10: P283DR9P1364_A7 (designed binder)
chain: B8 chain with Y32R, Q41R, E43D, F68W, Y72Q, D78T, W79D, E81F
B11: P283DR9P1364_D11 (designed binder)
chain: B8 chain with Y32D, V40P, Q41K, I70V, D78I, W79H, E81A
B12: P283DR9P1364_D8 (designed binder)
chain: B8 chain with Y32Q, W38T, V40I, Y72H, D78I, W79T, E81F
B13: P283DR9P1364_E7 (designed binder)
chain: B8 chain with Y32N, Q41R, F68W, W79R, E81N
B14: P283DR9P1364_B11 (designed binder)
chain: B8 chain with A34S, P39E, V40Q, Q41L, I70V, D78A, W79L, E81A
B15: P283DR9P1364_G10 (designed binder)
chain: B8 chain with Y32S, V40G, Q41S, I70V, Y72F, D78S, W79Q, E81W
B16: P283DR9P1364_E5 (designed binder)
chain: B8 chain with Y32W, A34S, Q41P, F68W, Y72Q, D78K, W79L, E81W
B17: P283DR9P1364_B4 (designed binder)
chain: B8 chain with Y32A, A34S, V40P, Q41P, F68W, Y72L, W79Q, E81W
B18: P283DR9P1364_D9 (designed binder)
chain: B8 chain with Y32G, A34S, V40P, Q41L, F68W, Y72F, D78E, W79R, E81W
B19: P283DR9P1364_G9 (designed binder)
chain: B8 chain with Y32G, A34W, Q41G, F68W, I70N, Y72S, D78E, W79Y, E81F
B20: P283DR9P1364_E8 (designed binder)
chain: B8 chain with Y32S, Q41H, D78V, W79L
B21: P283DR9P1364_E9 (designed binder)
chain: B8 chain with Y32D, V40T, Q41K, I70V, Y72N, D78W, W79R, E81F
B22: P283DR9P1364_B1 (designed binder)
chain: B8 chain with A34T, W38I, V40L, Q41G, I70V, D78L, W79L, E81S
B23: P283DR9P1364_F2 (designed binder)
chain: B8 chain with Y32W, Q41P, Y72Q, D78F, W79G, E81F
B24: P283DR9P1364_H1 (designed binder)
chain: B8 chain with Y32Q, A34S, Q41H, F68W, Y72W, D78R, W79Q, E81W
B25: P283DR9P1364_H11 (designed binder)
chain: B8 chain with Y32D, W38L, V40L, Q41G, Y72W, W79R
B26: P283DR9P1364_C10 (designed binder)
chain: B8 chain with Y32Q, V40K, Q41D, F68A, I70F, Y72W, D78V, W79Y, E81N
B27: P283DR9P1364_F6 (designed binder)
chain: LPAPKNLVVSRVTEDSARLSWTAPDAAFDSFTIAYPEREQDKWGEAIVLTVPGSERSYDLTGLKPGTEYWVIIQGVKGGRPSTPLSAILTT
B28: P283BR9P1363_F2 (designed binder)
chain: LPAPKNLVVSRVTEDSARLSWYRPDNRAGAFDSFLIQYQESEKVGEAIVLTVPGSERSYDLTGLKPGTEYTVSIYGVDVKYDIDSRPISSNPLSAIFTT
B29: P282BR9P1357_D12 (designed binder)
chain: LPAPKNLVVSRVTEDSARLSWGQYITAFSFDSFLIQYQESEKVGEAIVLTVPGSERSYDLTGLKPGTEYTVSIYGVDVAWFQGKPTWSNPLSAIFTT
B30: P283BR9P1363_F6 (designed binder)
chain: LPAPKNLVVSRVTEDSARLSWPEEAVTATSFDSFLIQYQESEKVGEAIVLTVPGSERSYDLTGLKPGTEYTVSIYGVDVKWEGNRPVASNPLSAIFTT
B31: P283BR9P1363_G5 (designed binder)
chain: B30 chain with P22Y, E23R, E24A, A25T, V26T, T27P, T29P, S30H
B32: P282BR9P1357_C4 (designed binder)
chain: B30 chain with K5N, E23F, E24V, A25S, V26Q, T27N, A28K, T29P, S30H

In the test the target is recombinant human CD8 alpha fused to Fc fragment of human IgG1 (human) (UniProt P01732). Nature of the test: ELISA, biotinylated CD8W7 or CD8W13.
With B1, the binding result was “binds”.

On to B2, for which the binding entry was “binds”.

B3: the binding entry is “binds”.

Take B4: the binding entry is “binds”.

Take B5: the binding entry was “binds”.

In the case of B6, the binding result is recorded as “binds”.

For B7, the binding entry is “binds”.

Take B8: the binding entry is “binds”.

With B9, the binding result was “binds”.

Consider B10, for which the binding entry is listed as “binds”.

B11: the binding entry is listed as “binds”.

In the case of B12, the binding entry was “binds”.

B13: the binding result was “binds”.

As for B14, the binding result was “binds”.

For B15, the binding entry was “binds”.

Consider B16, for which the binding entry is listed as “binds”.

As to B17, the binding result was “binds”.

Turning to B18, the binding entry is “binds”.

For the molecule B19, the binding result is listed as “binds”.

In the case of B20, the binding result is reported as “binds”.

On to B21, for which the binding entry is recorded as “binds”.

With B22, the binding result is “binds”.

Regarding B23, the binding result is on record as “binds”.

As for B24, the binding result was “binds”.

With B25, the binding result is given as “binds”.

For the molecule B26, the binding entry is given as “binds”.

For the molecule B27, the binding entry is reported as “binds”.

For the molecule B28, the binding result was “binds”.

For B29, the binding result is “binds”.

On to B30, for which the binding entry is listed as “binds”.

Consider B31, for which the binding entry is on record as “binds”.

Regarding B32, the binding entry is reported as “binds”.
